PubChem BioAssay AID1259424, University of Nebraska Medical Center | 2018
Screen: 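Rank knockdowns across the genome by resemblance to the KSR1 depletion profile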 (primary screen). Cell system: human HCT116 colon cancer cells. Reagent: siRNA pool against human genes, 50 nM. Detection: 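Six signature mRNAs by branched-DNA multiplex assay, scaled to two housekeeping genes and non-targeting median, log2; matched to mean KSR1 knockdown profile by Pearson correlation and euclidean distance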. Direction: mean correlation with KSR1 profile: higher = expression change more like KSR1 knockdown; mean distance from KSR1 profile: higher = expression change less like KSR1 knockdown.
The whole screen tested about 14,000 reagents; this is an unselected part. 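Higher correlation or smaller distance means closer resemblance to KSR1 loss; control wells, including KSR1 knockdowns, recur on many plates.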 Not all columns of the deposit are shown. Reagent sequences are not shown. Not stated in the record: the time to read-out.

PHF20 (PHD finger protein 20) → mean correlation with KSR1 profile = -0.371; mean distance from KSR1 profile = 1.58
AK5 (adenylate kinase 5) → mean correlation with KSR1 profile = 0.124; mean distance from KSR1 profile = 2.14
PON3 (paraoxonase 3) → mean correlation with KSR1 profile = 0.28; mean distance from KSR1 profile = 1.38
SLC7A6OS → mean correlation with KSR1 profile = 0.635; mean distance from KSR1 profile = 3.03
TBC1D22A (TBC1 domain family member 22A) → mean correlation with KSR1 profile = -0.968; mean distance from KSR1 profile = 1.98
CTSV (cathepsin V) → mean correlation with KSR1 profile = 0.212; mean distance from KSR1 profile = 1.62
EPX (eosinophil peroxidase) → mean correlation with KSR1 profile = -0.957; mean distance from KSR1 profile = 1.32
ZFYVE21 (zinc finger FYVE-type containing 21) → mean correlation with KSR1 profile = 0.786; mean distance from KSR1 profile = 1.61
TBX19 (T-box transcription factor 19) → mean correlation with KSR1 profile = 0.47; mean distance from KSR1 profile = 1.75
CIAO1 (cytosolic iron-sulfur assembly component 1) → mean correlation with KSR1 profile = -0.511; mean distance from KSR1 profile = 2.18
ADH7 (alcohol dehydrogenase 7 (class IV), mu or sigma polypeptide) → mean correlation with KSR1 profile = -0.172; mean distance from KSR1 profile = 4.78
MSC (musculin) → mean correlation with KSR1 profile = 0.16; mean distance from KSR1 profile = 1.63
FYCO1 (FYVE and coiled-coil domain autophagy adaptor 1) → mean correlation with KSR1 profile = 0.882; mean distance from KSR1 profile = 0.812
PSMC4 (proteasome 26S subunit, ATPase 4) → mean correlation with KSR1 profile = -0.759; mean distance from KSR1 profile = 3.83
CNGB3 (cyclic nucleotide gated channel subunit beta 3) → mean correlation with KSR1 profile = -0.255; mean distance from KSR1 profile = 1.6
TBL3 (transducin beta like 3) → mean correlation with KSR1 profile = -0.19; mean distance from KSR1 profile = 3.68
RPS27A (ribosomal protein S27a) → mean correlation with KSR1 profile = 0.247; mean distance from KSR1 profile = 3.15
SCAF1 (SR-related CTD associated factor 1) → mean correlation with KSR1 profile = -0.535; mean distance from KSR1 profile = 4.87
CPAMD8 (C3 and PZP like alpha-2-macroglobulin domain containing 8) → mean correlation with KSR1 profile = 0.0242; mean distance from KSR1 profile = 3.63

Part of the list above in another layout.
{"Target gene": "TBL3 (transducin beta like 3)", "mean correlation with KSR1 profile": -0.19, "mean distance from KSR1 profile": 3.68}
{"Target gene": "RPS27A (ribosomal protein S27a)", "mean correlation with KSR1 profile": 0.247, "mean distance from KSR1 profile": 3.15}
